Measurements reported in PubChem BioAssay AID1224828 (NIAID, 2016).
The whole screen tested about 17,000 reagents; shown is a random part of them. Of all reagents, 762 (4.5%) were called active. 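Active calls include both raised and lowered p65 entry, mostly lowered; wells with fewer than 50 cells lack a z-score.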 Raw values are not corrected between plates. Unmarked entries are inactive. No sequences are given here.

- Screen: 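Knock-downs that increase or decrease LPS-induced p65 nuclear translocation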 (primary screen)
- Cells: mouse RAW264.7 G9 macrophage reporter cells (GFP-p65, Tnf promoter-mCherry)
- Reagent: siRNA pool against mouse genes, 100 nM
- Duration: 2 days siRNA transfection, then 40 min LPS before fixation
- Challenge: LPS (Salmonella minnesota R595) at 10 ng/ml
- Measurement: 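Imaged p65 nuclear translocation ratio, normalised to the plate median, converted to robust z-scores and averaged across two replicates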
- Scale: p65 translocation robust z-score: higher = more nuclear NF-kappaB p65 after LPS than the plate median; nuclear/cytoplasmic p65 ratio: higher = more nuclear NF-kappaB p65
- Active means: 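Active if robust z is above 3.3 (negative regulators) or below -1.56, the Tlr4 control median (positive regulators); activity score 50 or more; control wells not called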
- Calls: active = hit (p65 shift raised or lowered); inactive = no clear change

gene symbol | p65 translocation robust z-score | nuclear/cytoplasmic p65 ratio, rep 1 | nuclear/cytoplasmic p65 ratio, rep 2 | low cell count flag
Zfp933 (GeneID 242747) | 1.24 | 1.89 | 1.75 | enough cells to score
Slc18a1 (GeneID 110877) | 0.47 | 1.43 | 1.34 | enough cells to score
Mast1 (GeneID 56527) | -1.24 | 1.4 | 1.22 | enough cells to score
Syt11 (GeneID 229521) | -0.16 | 1.35 | 1.16 | enough cells to score
H1f4 (GeneID 50709) | -1.35 | 1.49 | 1.3 | enough cells to score
A730049H05Rik (GeneID 74516) | 1.04 | 1.6 | 1.66 | enough cells to score
Amot (GeneID 27494) | 1.54 | 1.84 | 1.92 | enough cells to score
Gpnmb (GeneID 93695) | – | 1.39 | 1.17 | fewer than 50 cells per well; well left out of scoring
Shisa2 (GeneID 219134) | 1.75 | 1.64 | 1.82 | enough cells to score
Naalad2 (GeneID 72560) | -0.24 | 1.75 | 1.55 | enough cells to score
Cyp2b10 (GeneID 13088) | 0.94 | 1.73 | 1.92 | enough cells to score
2210016L21Rik (GeneID 72357) | – | 1.5 | 1.19 | fewer than 50 cells per well; well left out of scoring
Dctn5 (GeneID 59288) | -0.47 | 1.55 | 1.43 | enough cells to score
Hnrnpdl (GeneID 50926) | 0.28 | 1.53 | 1.73 | enough cells to score
Iah1 (GeneID 67732) | – | 1.25 | 1.19 | fewer than 50 cells per well; well left out of scoring
Cdk11b (GeneID 12537) | – | 1.98 | 1.33 | fewer than 50 cells per well; well left out of scoring
Gimap1 (GeneID 16205) | 1.15 | 1.78 | 1.53 | enough cells to score
Wrn (GeneID 22427) | -0.44 | 1.56 | 1.34 | enough cells to score
A530079E22Rik (GeneID 319977) | -0.49 | 1.26 | 1.52 | enough cells to score
Dus3l (GeneID 224907) | 0.67 | 1.55 | 1.68 | enough cells to score
Tsen15 (GeneID 66637) | -0.73 | 1.32 | 1.31 | enough cells to score
Icam1 (GeneID 15894) | -0.63 | 1.3 | 1.34 | enough cells to score
Mtmr1 (GeneID 53332) | -0.43 | 1.4 | 1.28 | enough cells to score
Pou4f3 (GeneID 18998) | 1.02 | 1.34 | 1.54 | enough cells to score
Stk32b (GeneID 64293) | – | 1.73 | 1.4 | fewer than 50 cells per well; well left out of scoring
Nin (GeneID 18080) | 0.61 | 1.92 | 1.53 | enough cells to score
Kcnk13 (GeneID 217826) | -0.69 | 1.37 | 1.31 | enough cells to score
Tm7sf3 (GeneID 67623) | 0.13 | 1.43 | 1.61 | enough cells to score
Ndufa10 (GeneID 67273) | -0.61 | 1.67 | 1.52 | enough cells to score
Higd2a (GeneID 67044) | -0.17 | 1.34 | 1.36 | enough cells to score
Omd (GeneID 27047) | -0.36 | 1.37 | 1.22 | enough cells to score
Arhgef3 (GeneID 71704) | -0.27 | 1.62 | 1.53 | enough cells to score
Ggps1 (GeneID 14593) | -1.09 | 1.25 | 1.27 | enough cells to score
Pou2af1 (GeneID 18985) | -0.48 | 1.52 | 1.26 | enough cells to score

An excerpt from above, limited to “low cell count flag”:
Cdk11b (GeneID 12537) = fewer than 50 cells per well; well left out of scoring
Gimap1 (GeneID 16205) = enough cells to score
Wrn (GeneID 22427) = enough cells to score
A530079E22Rik (GeneID 319977) = enough cells to score
Dus3l (GeneID 224907) = enough cells to score

Continued:
gene symbol | p65 translocation robust z-score | nuclear/cytoplasmic p65 ratio, rep 1 | nuclear/cytoplasmic p65 ratio, rep 2 | low cell count flag
Spcs2 (GeneID 66624) | -1.13 | 1.25 | 1.28 | enough cells to score
Slc35a3 (GeneID 229782) | – | 1.35 | 1.33 | fewer than 50 cells per well; well left out of scoring
Ucp3 (GeneID 22229) | 0.8 | 1.59 | 1.65 | enough cells to score
Sprr3 (GeneID 20766) | -0.49 | 1.31 | 1.21 | enough cells to score
Nopchap1 (GeneID 28109) | 0.26 | 1.66 | 1.77 | enough cells to score
Aire (GeneID 11634) | 1.25 | 1.73 | 1.88 | enough cells to score
Serpinb6a (GeneID 20719) | 0.16 | 1.53 | 1.62 | enough cells to score
C130023O10Rik (GeneID 320230) | 1.02 | 1.54 | 1.69 | enough cells to score
Tbce (GeneID 70430) | 0.07 | 1.55 | 1.5 | enough cells to score
Sall4 (GeneID 99377) | 1.64 | 1.8 | 1.7 | enough cells to score
Rln3 (GeneID 212108) | – | 1.43 | 1.07 | fewer than 50 cells per well; well left out of scoring
Tcp11l2 (GeneID 216198) | -1.62 (active) | 1.25 | 1.15 | enough cells to score
Impg1 (GeneID 63859) | -0.61 | 1.41 | 1.29 | enough cells to score
Map2k3 (GeneID 26397) | – | 1.45 | 1.37 | fewer than 50 cells per well; well left out of scoring
Uba2 (GeneID 50995) | – | 1.7 | 1.19 | fewer than 50 cells per well; well left out of scoring
Ncoa7 (GeneID 211329) | 0.14 | 1.65 | 1.62 | enough cells to score
Tmbim4 (GeneID 68212) | 0.78 | 1.55 | 1.65 | enough cells to score
Col26a1 (GeneID 140709) | 0.62 | 1.57 | 1.42 | enough cells to score
Muc1 (GeneID 17829) | 0.21 | 1.81 | 1.63 | enough cells to score
Cytl1 (GeneID 231162) | 0.2 | 1.61 | 1.67 | enough cells to score
Pard6g (GeneID 93737) | 0.41 | 1.45 | 1.29 | enough cells to score
Or4d6 (GeneID 258673) | -1.13 | 1.47 | 1.24 | enough cells to score
Fra10ac1 (GeneID 70567) | -0.36 | 1.52 | 1.59 | enough cells to score
Cd82 (GeneID 12521) | 0.97 | 1.58 | 1.53 | enough cells to score
Alg13 (GeneID 67574) | 0.06 | 1.29 | 1.31 | enough cells to score
